Data source: PubChem BioAssay AID504791 (Drosophila RNAi Screening Center, 2011)
Screen: 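Genes of the fly required for silencing by miRNA, siRNA or endo-siRNA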 (primary screen). System: Drosophila S2-derived reporter cells. Reagent: long dsRNA against Drosophila genes, about 150-250 ng dsRNA per well (siRNA assay); about 80-120 ng (miRNA assay). Duration: about 5 days (siRNA assay); about 4 days (miRNA assay). Treatment: copper sulfate induction of reporters: 25 µM (siRNA assay); 200 mM stated (miRNA assay), 1-2 days before reading. Measured: 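Per-well ratio of Renilla over firefly light, expressed relative to that plate's average ratio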. Scale: siRNA reporter hit score: higher = 3 marks a strong hit with raised ratio; -3 a strong hit with lowered ratio. Rule for the call: 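First-pass picks had plate-scaled ratios over 1.5 for the siRNA assay, over 1.6 for the miRNA assay, or under 0.6; two distinct dsRNAs had to score alike on retest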.
In all, the deposit lists about 23,000 reagents; shown is a random part of those with a known target gene and a result. Of all reagents, 199 (0.86%) got an active call. 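Plate-scaled ratios behind the calls are not deposited; printed light signals are raw; many rows marked increased or decreased are still called inactive.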 A plus sign joins genes that one reagent is predicted to hit. Reagent sequences are not shown.

| target | dsRNA | siRNA reporter hit score | stable siRNA reporter change | miRNA reporter change | stable assay Renilla, run 1 (luminescence) | stable assay firefly, run 1 (luminescence) | activity call |
| --- | --- | --- | --- | --- | --- | --- | --- |
| TotM (Turandot M) | DRSC02355 | – | – | – | 8685 | 4.78e5 | inactive |
| TwdlW (TweedleW) | DRSC15540 | – | – | – | 6870 | 3.23e5 | inactive |
| pip (pipe) | DRSC11382 | – | – | – | 6592 | 3.09e5 | inactive |
| Ge-1 | DRSC02938 | – | – | – | 6979 | 3.83e5 | inactive |
| Josd (Josephin domain containing) | DRSC18323 | – | – | – | 5167 | 2.71e5 | inactive |
| CG5535 | DRSC10514 | – | – | – | 8787 | 3.33e5 | inactive |
| Hen1 (Hen1 methyltransferase) | DRSC06139 | – | – | – | 8946 | 5.16e5 | inactive |
| Hen1 (Hen1 methyltransferase) | DRSC06140 | – | – | – | 7075 | 4.79e5 | inactive |
| Obp50c + Obp50b | DRSC05482 | – | – | – | 6658 | 3.55e5 | inactive |
| pps (protein partner of snf) | DRSC16057 | – | – | – | 9327 | 3.61e5 | inactive |
| Jhbp15 (Juvenile hormone binding protein 15) | DRSC15217 | – | – | – | 6507 | 2.94e5 | inactive |
| CG6236 | DRSC15999 | – | – | – | 7952 | 3.97e5 | inactive |
| CG1632 | DRSC17558 | – | – | – | 4898 | 3.80e5 | inactive |
| CG1632 | DRSC18110 | – | – | – | 5704 | 3.72e5 | inactive |
| PpN58A (Protein phosphatase N at 58A) | DRSC04642 | – | – | – | 15899 | 3.14e5 | inactive |
| Cdk9 (Cyclin-dependent kinase 9) | DRSC04601 | – | – | – | 3351 | 1.44e5 | inactive |
| Gem3 (Gemin 3) | DRSC11144 | – | – | – | 6075 | 5.00e5 | inactive |
| CG13950 | DRSC00368 | – | – | – | 8174 | 3.64e5 | inactive |
| Srg3 (Sting-regulated gene 3) | DRSC08984 | – | – | – | 4532 | 4.14e5 | inactive |
| Srg3 (Sting-regulated gene 3) | DRSC10178 | – | – | – | 7134 | 5.30e5 | inactive |
| CG33110 | DRSC14694 | – | – | – | 4966 | 2.65e5 | inactive |
| CG33110 | DRSC16137 | – | – | – | 7066 | 3.99e5 | inactive |
| CG7631 | DRSC01873 | – | – | – | 6691 | 3.56e5 | inactive |
| CG34221 | DRSC06150 | – | – | – | 5151 | 3.07e5 | inactive |
| CG33969 + fbl | DRSC11886 | – | – | – | 6891 | 3.51e5 | inactive |
| CG41099 | DRSC21049 | – | – | – | 5787 | 3.35e5 | inactive |
| CG41099 | DRSC21051 | – | – | – | 5306 | 3.91e5 | inactive |
| CG2617 | DRSC02712 | – | – | – | 6698 | 3.39e5 | inactive |
| Prosbeta2R2 (Proteasome beta2 subunit-related 2) | DRSC12193 | – | – | – | 6883 | 4.83e5 | inactive |
| CG8441 | DRSC07180 | – | – | – | 14643 | 5.05e5 | inactive |
| CG2209 | DRSC19843 | – | – | – | 5810 | 4.91e5 | inactive |
| Syx4 (Syntaxin 4) | DRSC18586 | – | – | – | 7312 | 4.06e5 | inactive |
| Smvt (Sodium-dependent multivitamin transporter) | DRSC15426 | – | – | – | 7859 | 5.44e5 | inactive |
| CG34452 | DRSC09387 | – | – | – | 7062 | 3.57e5 | inactive |
| Daao1 (D-amino acid oxidase 1) | DRSC06131 | – | – | – | 6978 | 4.15e5 | inactive |
| Pex19 (Peroxin 19) | DRSC02839 | – | – | – | 12875 | 1.44e6 | inactive |
| Mal-A5 (Maltase A5) | DRSC07232 | – | – | – | 8427 | 5.18e5 | inactive |
| 5-HT2A (5-hydroxytryptamine (serotonin) receptor 2A) | DRSC11990 | – | – | – | 9062 | 3.80e5 | inactive |
| CG31626 + CG8677 | DRSC21844 | – | reporter ratio lowered past the hit cutoff | – | 8271 | 9.09e5 | inactive |
| Ice2 (Interacts with the C terminus of ELL 2) | DRSC14268 | – | – | – | 11039 | 4.04e5 | inactive |
| sv (shaven) | DRSC17221 | 3 | – | – | 6662 | 3.66e5 | inactive |
| CG42535 | DRSC09041 | – | – | – | 4683 | 3.73e5 | inactive |
| PCNA (Proliferating cell nuclear antigen) | DRSC07653 | – | – | reporter ratio lowered past the hit cutoff | 6996 | 3.92e5 | active |
| CG1889 + CG43386 | DRSC17979 | – | – | – | 4979 | 3.38e5 | inactive |
| CG12825 | DRSC06174 | – | – | – | 3992 | 4.55e5 | inactive |
| CG32369 | DRSC10042 | – | – | – | 5248 | 2.50e5 | inactive |
| CG32369 | DRSC10834 | – | – | – | 6798 | 2.99e5 | inactive |
| CG17929 | DRSC15291 | – | – | – | 7340 | 4.25e5 | inactive |
| Xpac (Xeroderma pigmentosum group A-like) | DRSC18730 | – | – | – | 7334 | 4.12e5 | inactive |
| CG9663 | DRSC00724 | – | – | – | 26102 | 2.96e5 | inactive |
| CG32833 | DRSC04596 | – | – | – | 1.58e5 | 5.53e5 | inactive |
| CG32686 | DRSC17645 | – | – | – | 5724 | 4.13e5 | inactive |
| CG3594 | DRSC04393 | – | – | – | 7850 | 2.01e6 | inactive |
| CG3594 | DRSC21959 | – | – | – | 9632 | 5.91e5 | inactive |
| Nt5a (5' nucleotidase A) | DRSC08561 | – | – | – | 9307 | 4.16e5 | inactive |
| CG5863 | DRSC15898 | – | – | – | 7691 | 4.05e5 | inactive |
| CG42568 + DnaJ-60 | DRSC04207 | – | – | – | 5774 | 2.89e5 | inactive |
| CG42568 + DnaJ-60 | DRSC04611 | – | – | – | 1.99e5 | 1.31e6 | inactive |
| CG8031 | DRSC16364 | – | – | – | 8307 | 4.85e5 | inactive |
| CG33346 | DRSC22898 | – | – | – | 4487 | 3.96e5 | inactive |
| CG13868 | DRSC06427 | – | – | – | 9817 | 3.23e5 | inactive |
| CG4995 | DRSC02801 | – | – | – | 43796 | 3.69e5 | inactive |
| Start1 | DRSC04384 | – | – | – | 38280 | 1.79e6 | inactive |
| ATPsynO (ATP synthase, oligomycin sensitivity conferring protein) | DRSC16780 | – | – | – | 7947 | 5.37e5 | inactive |
| RpL35A (Ribosomal protein L35A) | DRSC12302 | – | – | – | 7050 | 3.59e5 | inactive |
| Vmat (Vesicular monoamine transporter) | DRSC06961 | – | – | – | 8311 | 4.25e5 | inactive |
| Vmat (Vesicular monoamine transporter) | DRSC06962 | – | – | – | 5811 | 3.50e5 | inactive |
| Vmat (Vesicular monoamine transporter) | DRSC22223 | – | – | – | 8439 | 5.24e5 | inactive |
| Ir68a (Ionotropic receptor 68a) | DRSC10599 | – | – | – | 5575 | 3.13e5 | inactive |
| CG16820 | DRSC02522 | – | – | – | 11588 | 1.20e6 | inactive |
| eIF3f2 (eukaryotic translation initiation factor 3 subunit f2) | DRSC04903 | – | – | – | 7910 | 5.75e5 | inactive |
| eIF2Bbeta (eukaryotic translation initiation factor 2B subunit beta) | DRSC18465 | – | – | – | 6811 | 6.03e5 | inactive |
| eIF3c (eukaryotic translation initiation factor 3 subunit c) | DRSC06905 | – | – | – | 4587 | 3.35e5 | inactive |
| Pfas (Phosphoribosylformylglycinamidine synthase) | DRSC03480 | – | – | – | 20224 | 6.31e5 | inactive |
| CG5644 | DRSC10531 | – | – | – | 6107 | 3.83e5 | inactive |
| Gr59e (Gustatory receptor 59e) | DRSC04276 | – | – | – | 6595 | 4.96e5 | inactive |
| CG13321 | DRSC06358 | – | reporter ratio lowered past the hit cutoff | – | 6063 | 5.73e5 | inactive |
| CG5880 | DRSC15906 | – | – | – | 7703 | 4.32e5 | inactive |
| CG17754 | DRSC18131 | – | – | – | 7378 | 4.29e5 | inactive |
| Patronin | DRSC06756 | – | – | – | 7915 | 4.84e5 | inactive |
| Patronin | DRSC06757 | – | – | – | 6940 | 3.08e5 | inactive |
| Patronin | DRSC06994 | – | – | – | 6228 | 3.51e5 | inactive |
| TfIIEalpha (Transcription factor IIEalpha) | DRSC11303 | -3 | – | – | 6762 | 4.52e5 | inactive |

Reformatted: entries from further up
{"target":"CG1889 + CG43386","dsRNA":"DRSC17979","stable assay Renilla, run 1 (luminescence)":4979,"stable assay firefly, run 1 (luminescence)":3.38e5,"activity call":"inactive"}
{"target":"CG12825","dsRNA":"DRSC06174","stable assay Renilla, run 1 (luminescence)":3992,"stable assay firefly, run 1 (luminescence)":4.55e5,"activity call":"inactive"}
{"target":"CG32369","dsRNA":"DRSC10042","stable assay Renilla, run 1 (luminescence)":5248,"stable assay firefly, run 1 (luminescence)":2.50e5,"activity call":"inactive"}
{"target":"CG32369","dsRNA":"DRSC10834","stable assay Renilla, run 1 (luminescence)":6798,"stable assay firefly, run 1 (luminescence)":2.99e5,"activity call":"inactive"}
{"target":"CG17929","dsRNA":"DRSC15291","stable assay Renilla, run 1 (luminescence)":7340,"stable assay firefly, run 1 (luminescence)":4.25e5,"activity call":"inactive"}
{"target":"Xpac (Xeroderma pigmentosum group A-like)","dsRNA":"DRSC18730","stable assay Renilla, run 1 (luminescence)":7334,"stable assay firefly, run 1 (luminescence)":4.12e5,"activity call":"inactive"}
{"target":"CG9663","dsRNA":"DRSC00724","stable assay Renilla, run 1 (luminescence)":26102,"stable assay firefly, run 1 (luminescence)":2.96e5,"activity call":"inactive"}
{"target":"CG32833","dsRNA":"DRSC04596","stable assay Renilla, run 1 (luminescence)":1.58e5,"stable assay firefly, run 1 (luminescence)":5.53e5,"activity call":"inactive"}
{"target":"CG32686","dsRNA":"DRSC17645","stable assay Renilla, run 1 (luminescence)":5724,"stable assay firefly, run 1 (luminescence)":4.13e5,"activity call":"inactive"}
